The exact form of at least one protein or probe is not confirmed. For some assays here: Weaker means in comparison with the reference protein, sequence or condition of that experiment. Tags and fusion partners may be left off the protein sequences shown. For some assays here: Results from cells or extracts need not show a direct contact. At least one verdict was read from the data and is not stated in words by the source.
Legend:
His-Sall2 (Mus musculus) = molecular target: T1, His-Sall2 (Mus musculus) (UniProt Q9QX96); experiment: EMSA; settings: 5 uM ZnCl2, 2.5 mM MgCl2, 50 nM protein, EMSA: 10 mM HEPES pH 7.5, 100 mM KCl, 3 mM DTT, 0.05% NP-40, 3% glycerol, 5 ug/ml BSA, 2.5 mM MgCl2, 5 uM ZnCl2, 100 ng pBluescript DNA, 20 fmol probe in 20 ul, recombinant protein, protein details: N-terminal 6xHis (pQE-80L), label: 32P end label
T1 sequence (looked up, limits assumed): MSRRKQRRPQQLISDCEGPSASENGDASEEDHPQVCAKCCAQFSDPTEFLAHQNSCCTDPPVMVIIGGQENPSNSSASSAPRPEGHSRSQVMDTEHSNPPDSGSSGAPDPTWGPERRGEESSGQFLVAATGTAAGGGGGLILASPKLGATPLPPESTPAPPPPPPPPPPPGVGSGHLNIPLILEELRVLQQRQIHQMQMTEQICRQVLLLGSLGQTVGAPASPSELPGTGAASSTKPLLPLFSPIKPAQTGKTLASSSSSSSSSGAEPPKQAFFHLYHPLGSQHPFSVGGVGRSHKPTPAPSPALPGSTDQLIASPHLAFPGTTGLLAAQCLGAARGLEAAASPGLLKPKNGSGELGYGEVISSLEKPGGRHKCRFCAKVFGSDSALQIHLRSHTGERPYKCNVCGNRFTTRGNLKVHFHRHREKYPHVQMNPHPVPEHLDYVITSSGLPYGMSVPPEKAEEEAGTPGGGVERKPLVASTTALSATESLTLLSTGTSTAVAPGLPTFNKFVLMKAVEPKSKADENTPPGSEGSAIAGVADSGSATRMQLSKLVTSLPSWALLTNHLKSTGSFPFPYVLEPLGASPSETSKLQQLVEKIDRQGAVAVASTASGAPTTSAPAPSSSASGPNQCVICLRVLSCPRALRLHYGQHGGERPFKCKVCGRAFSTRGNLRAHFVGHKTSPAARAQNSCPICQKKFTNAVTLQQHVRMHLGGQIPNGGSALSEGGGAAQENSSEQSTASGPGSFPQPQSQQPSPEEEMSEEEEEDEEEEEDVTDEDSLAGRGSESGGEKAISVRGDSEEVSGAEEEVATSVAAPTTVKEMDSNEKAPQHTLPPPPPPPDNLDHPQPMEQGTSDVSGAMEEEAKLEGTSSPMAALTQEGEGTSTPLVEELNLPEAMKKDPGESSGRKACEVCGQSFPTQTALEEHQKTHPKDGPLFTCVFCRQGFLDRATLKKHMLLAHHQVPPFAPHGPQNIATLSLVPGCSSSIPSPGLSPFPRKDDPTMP

Sall2-GFP (Mus musculus) = molecular target: T2, Sall2-GFP (Mus musculus) (UniProt Q9QX96); experiment: EMSA; settings: HEK293 nuclear extract, EMSA: 10 mM HEPES pH 7.5, 100 mM KCl, 3 mM DTT, 0.05% NP-40, 3% glycerol, 5 ug/ml BSA, 2.5 mM MgCl2, 5 uM ZnCl2, 100 ng pBluescript DNA, 20 fmol probe in 20 ul, protein in an extract, protein details: C-terminal GFP, label: 32P end label
T2 sequence (looked up, limits assumed): T1 sequence (looked up, limits assumed)

[1] = strong binding, anti-GFP supershift

Sequence: CGATCGGGGCGGGGCGAGGGGCGGGCCGATC (double strand) [cSall2 double site, cSall2(II)]
- binding result (His-Sall2 (Mus musculus); supershift with anti-His): binds
- binding result (Sall2-GFP (Mus musculus)): binds

Sequence: GGACAGGGGCGGGGACAGGGGCGGGCCGGGC (double strand) [h(1+2)]
- binding result (His-Sall2 (Mus musculus); similar to cSall2): binds
- binding result (Sall2-GFP (Mus musculus); [1]): binds

Sequence: TCGAAGGGGCGGGGACACGGGCGGGATGTCG (double strand) [m(1+2)]
- binding result (His-Sall2 (Mus musculus); similar to cSall2, supershift with anti-His): binds
- binding result (Sall2-GFP (Mus musculus); [1]): binds

Sequence: TCTGCGGGGCGGGGACAGGGGCGGGGACAGG (double strand) [h(2+3)]
- binding result (His-Sall2 (Mus musculus); weaker than cSall2, m(1+2), h(1+2)): binds more weakly

Sequence: TCTGCGGGGCGGGGACAGGGGCGGGGACAGGGGCGGGCCGGGC (double strand) [h(1+2+3)]
- binding result (His-Sall2 (Mus musculus); single retardation band): binds

Source: publication PMC4650718
